Source: PubChem BioAssay AID192 (DTP/NCI, 2004)
The list is a part of this screen's results and no random one: it is rich in T/C values a quarter to a half above the control, in often repeated tests (any T/C) and in doses without a T/C. Other doses and runs of a compound stand elsewhere. T/C is the treated group as % of the vehicle group. Some entries give survivors of the animals treated and no T/C: the source files T/C as zero there, which appears to mark a toxic dose or a test without result, not a measured value. Some survivor counts are full or nearly so, which does not show that the dose was tolerated: survival well below the control is almost never listed, so the zero probably covers shortened survival too. Counts of survivors are from the toxicity check (mostly the fifth day) where no day follows; animals may have died later. Schedule codes are those of the source, read here as Q, the interval in days (D) or hours (H), X, the number of doses. Some entries were tested several times; the results are listed from low to high. Signs of the kind (2×) give the number of equal values in this list. Where survival is the endpoint, the PubChem record calls one and a half times the control and up active, and a quarter to a half above the control has no call in these data; cut-offs in other NCI protocols can differ. Some T/C values carry the count of animals alive at the toxicity check (mostly the fifth day); where none is given, no animal had died by that day.

System: BDF1 mice, B16 melanoma ip, median survival T/C
Test: NCI In Vivo Anticancer Drug Screen. Data for tumor model B16 Melanoma (intraperitoneal) in B6D2F1 (BDF1) mice
Conditions: T/C endpoint: median survival time, higher T/C = longer survival
Method in brief: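 Survival or tumor size is measured after treatment of tumor-bearing mice and normalised to the vehicle-treated control group.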

[1] = dose: 4.0 mg/kg/injection, schedule: Q01DX009 (ip), vehicle: saline
[2] = dose: 20.0 mg/kg/injection, schedule: Q01DX001 (ip), vehicle: saline
[3] = dose: 24.0 mg/kg/injection, schedule: Q01DX001 (ip), vehicle: water

Compound: COc1cccc2c1C(=O)c1c(O)c3c(c(O)c1C2=O)C[C@@](O)(C(=O)CO)C[C@@H]3OC1CC(N)C(O)C(C)O1 (stereo not given in full)
- T/C (dose: 4.0 mg/kg/injection, schedule: Q01DX001 (ip), vehicle: saline, evaluated on day 8): 203 % of control
- T/C (dose: 4.0 mg/kg/injection, schedule: Q01DX001 (ip), vehicle: saline, evaluated on day 10): 140 % of control
- T/C (dose: 4.0 mg/kg/injection, schedule: Q01DX001 (ip), vehicle: water, evaluated on day 40): 132 % of control
- T/C (dose: 4.0 mg/kg/injection, schedule: Q01DX001 (ip), vehicle: water, evaluated on day 45): 122, 126, 169 % of control [7 of 10 alive]
- T/C (dose: 4.0 mg/kg/injection, schedule: Q01DX001 (ip), vehicle: water, evaluated on day 50): 160 % of control
- T/C (dose: 4.0 mg/kg/injection, schedule: Q01DX001 (ip), vehicle: water, evaluated on day 60): 123, 142, 160, 161, 162, 180, 182, 192 [9 of 10 alive], 197, 203, 211, 227, 233, 248, 250 (2×), 252, 256, 260, 273, 280, 283, 284, 285, 287, 288 (2×), 289, 293, 300, 308, 314, 315, 319, 322, 325 % of control (2×)
- T/C [1]: 87, 142, 288, 297 % of control
- survivor count [1]: 9 of 10 and 10 of 10 (2×)
- survivor count (dose: 4.0 mg/kg/injection, schedule: Q01DX009 (ip), vehicle: water): 10 of 10 and 8 of 8
- T/C (dose: 4.0 mg/kg/injection, schedule: Q04DX003 (ip), vehicle: saline, evaluated on day 8): 185 % of control
- T/C (dose: 4.0 mg/kg/injection, schedule: Q04DX003 (ip), vehicle: saline, evaluated on day 20): 118 % of control [2 of 4 alive]
- T/C (dose: 4.0 mg/kg/injection, schedule: Q04DX003 (ip), vehicle: saline, evaluated on day 60): 152 [9 of 10 alive], 170, 183 [9 of 10 alive], 260 % of control (2×)
- T/C (dose: 4.8 mg/kg/injection, schedule: Q01DX001 (ip), vehicle: saline): 145 and 147 % of control
- T/C (dose: 4.8 mg/kg/injection, schedule: Q04DX003 (ip), vehicle: water, evaluated on day 60): 141 (2×), 197, 285 % of control
- T/C (dose: 4.8 mg/kg/injection, schedule: Q04DX003 (ip), vehicle: water, evaluated on day 75): 191 and 365 % of control
- T/C (dose: 5.0 mg/kg/injection, schedule: Q01DX001 (ip), vehicle: saline): 108, 132, 153, 287 % of control
- T/C (dose: 6.0 mg/kg/injection, schedule: Q01DX001 (ip), vehicle: saline): 145 % of control
- T/C (dose: 6.0 mg/kg/injection, schedule: Q01DX001 (ip), vehicle: water, evaluated on day 45): 234 % of control
- T/C (dose: 6.0 mg/kg/injection, schedule: Q01DX001 (ip), vehicle: water, evaluated on day 60): 113, 222, 277, 287, 306 % of control
- T/C (dose: 6.0 mg/kg/injection, schedule: Q01DX001 (ip), vehicle: water, evaluated on day 65): 144 and 334 % of control
- T/C (dose: 6.0 mg/kg/injection, schedule: Q01DX001 (ip), vehicle: water, evaluated on day 75): 142 and 249 % of control
- T/C (dose: 6.0 mg/kg/injection, schedule: Q04DX003 (ip), vehicle: saline): 147 % of control
- T/C (dose: 7.5 mg/kg/injection, schedule: Q01DX001 (ip), vehicle: water, evaluated on day 50): 103 % of control
- T/C (dose: 7.5 mg/kg/injection, schedule: Q01DX001 (ip), vehicle: water, evaluated on day 60): 141, 283, 308 % of control
- T/C (dose: 8.0 mg/kg/injection, schedule: Q01DX001 (ip), vehicle: saline, evaluated on day 1): 300 % of control
- T/C (dose: 8.0 mg/kg/injection, schedule: Q01DX001 (ip), vehicle: saline, evaluated on day 5): 139, 150, 271 % of control
- T/C (dose: 8.0 mg/kg/injection, schedule: Q01DX001 (ip), vehicle: saline, evaluated on day 6): 300 % of control
- T/C (dose: 8.0 mg/kg/injection, schedule: Q01DX001 (ip), vehicle: saline, evaluated on day 8): 190 % of control
- T/C (dose: 8.0 mg/kg/injection, schedule: Q01DX001 (ip), vehicle: saline, evaluated on day 10): 153 % of control
- T/C (dose: 8.0 mg/kg/injection, schedule: Q01DX001 (ip), vehicle: water, evaluated on day 40): 150 % of control
- T/C (dose: 8.0 mg/kg/injection, schedule: Q01DX001 (ip), vehicle: water, evaluated on day 45): 138, 156 [9 of 10 alive], 176 % of control [8 of 10 alive]
- T/C (dose: 8.0 mg/kg/injection, schedule: Q01DX001 (ip), vehicle: water, evaluated on day 50): 176 % of control
- T/C (dose: 8.0 mg/kg/injection, schedule: Q01DX001 (ip), vehicle: water, evaluated on day 60): 144, 154, 156, 162, 165, 198, 201 [9 of 10 alive], 204, 209, 210, 225, 227, 242, 253, 258, 273, 281, 283 (2×), 285, 287, 288, 288 [9 of 10 alive], 289 (2×), 290, 293, 297, 300 (2×), 303, 304, 308, 309, 321 [9 of 10 alive], 325, 327 % of control
- survivor count (dose: 8.0 mg/kg/injection, schedule: Q01DX009 (ip), vehicle: saline): 10 of 10
- survivor count (dose: 8.0 mg/kg/injection, schedule: Q04DX003 (ip), vehicle: saline): 10 of 10
- T/C (dose: 8.0 mg/kg/injection, schedule: Q04DX003 (ip), vehicle: water, evaluated on day 60): 86 and 91 % of control
- T/C (dose: 8.0 mg/kg/injection, schedule: Q04DX003 (ip), vehicle: water, evaluated on day 75): 200 % of control
- survivor count (dose: 8.0 mg/kg/injection, schedule: Q04DX003 (ip), vehicle: water): 10 of 10 (2×) and 7 of 7
- T/C (dose: 10.0 mg/kg/injection, schedule: Q01DX001 (ip), vehicle: saline): 111, 180, 182, 287 % of control
- T/C (dose: 10.0 mg/kg/injection, schedule: Q01DX001 (ip), vehicle: water, evaluated on day 60): 127 [7 of 8 alive] and 303 % of control
- T/C (dose: 10.0 mg/kg/injection, schedule: Q01DX001 (ip), vehicle: water, evaluated on day 65): 184 and 269 % of control
- T/C (dose: 10.0 mg/kg/injection, schedule: Q01DX001 (ip), vehicle: water, evaluated on day 75): 161 and 210 % of control
- T/C (dose: 12.0 mg/kg/injection, schedule: Q01DX001 (ip), vehicle: saline, evaluated on day 5): 271 % of control
- T/C (dose: 12.0 mg/kg/injection, schedule: Q01DX001 (ip), vehicle: saline, evaluated on day 8): 228 % of control
- T/C (dose: 12.0 mg/kg/injection, schedule: Q01DX001 (ip), vehicle: saline, evaluated on day 10): 153 % of control
- T/C (dose: 12.0 mg/kg/injection, schedule: Q01DX001 (ip), vehicle: saline, evaluated on day 99): 135 and 412 % of control
- T/C (dose: 12.0 mg/kg/injection, schedule: Q01DX001 (ip), vehicle: water, evaluated on day 45): 234 % of control
- T/C (dose: 12.0 mg/kg/injection, schedule: Q01DX001 (ip), vehicle: water, evaluated on day 60): 196, 277, 306 % of control
- survivor count (dose: 13.0 mg/kg/injection, schedule: Q04DX003 (ip), vehicle: saline): 9 of 10
- T/C (dose: 15.0 mg/kg/injection, schedule: Q01DX001 (ip), vehicle: water, evaluated on day 50): 149 % of control
- T/C (dose: 15.0 mg/kg/injection, schedule: Q01DX001 (ip), vehicle: water, evaluated on day 60): 283 and 307 % of control
- survivor count (dose: 15.0 mg/kg/injection, schedule: Q01DX001 (ip), vehicle: water): 9 of 10
- T/C (dose: 16.0 mg/kg/injection, schedule: Q01DX001 (ip), vehicle: saline, evaluated on day 1): 42 % of control
- T/C (dose: 16.0 mg/kg/injection, schedule: Q01DX001 (ip), vehicle: saline, evaluated on day 6): 42 % of control
- T/C (dose: 16.0 mg/kg/injection, schedule: Q01DX001 (ip), vehicle: saline, evaluated on day 8): 193 % of control [6 of 8 alive]
- T/C (dose: 16.0 mg/kg/injection, schedule: Q01DX001 (ip), vehicle: saline, evaluated on day 10): 106 % of control [8 of 9 alive]
- T/C (dose: 16.0 mg/kg/injection, schedule: Q01DX001 (ip), vehicle: water, evaluated on day 40): 156 % of control
- T/C (dose: 16.0 mg/kg/injection, schedule: Q01DX001 (ip), vehicle: water, evaluated on day 45): 136 % of control
- T/C (dose: 16.0 mg/kg/injection, schedule: Q01DX001 (ip), vehicle: water, evaluated on day 50): 190 % of control
- T/C (dose: 16.0 mg/kg/injection, schedule: Q01DX001 (ip), vehicle: water, evaluated on day 60): 92, 94, 95, 96 [9 of 10 alive], 108, 120 [9 of 10 alive], 135, 141, 156, 173 [9 of 10 alive], 180, 188, 235, 240, 242 [9 of 10 alive], 273 [9 of 10 alive], 285, 287, 294, 303, 304, 306, 307, 323 [9 of 10 alive], 327 % of control
- survivor count (dose: 16.0 mg/kg/injection, schedule: Q01DX001 (ip), vehicle: water): 4 of 10, 6 of 10, 7 of 10, 8 of 10, 9 of 10, 10 of 10 (3×)
- survivor count (dose: 16.0 mg/kg/injection, schedule: Q01DX009 (ip), vehicle: saline): 7 of 10
- survivor count (dose: 16.0 mg/kg/injection, schedule: Q04DX003 (ip), vehicle: saline): 7 of 10 and 10 of 10
- T/C (dose: 16.7 mg/kg/injection, schedule: Q01DX001 (ip), vehicle: water, evaluated on day 60): 102 % of control [7 of 8 alive]
- T/C (dose: 16.7 mg/kg/injection, schedule: Q01DX001 (ip), vehicle: water, evaluated on day 65): 167 and 264 % of control
- T/C (dose: 16.7 mg/kg/injection, schedule: Q01DX001 (ip), vehicle: water, evaluated on day 75): 107 [8 of 10 alive] and 142 % of control
- survivor count (dose: 16.7 mg/kg/injection, schedule: Q01DX001 (ip), vehicle: water): 8 of 8
- T/C [2]: 133, 201, 287 % of control
- survivor count [2]: 9 of 10
- T/C [3]: 129 [9 of 10 alive] and 306 % of control
- survivor count [3]: 7 of 10 and 7 of 8
- survivor count (dose: 30.0 mg/kg/injection, schedule: Q01DX001 (ip), vehicle: water): 3 of 10, 5 of 10, 8 of 10
- survivor count (dose: 32.0 mg/kg/injection, schedule: Q01DX001 (ip), vehicle: water): 2 of 10
- survivor count (dose: 40.0 mg/kg/injection, schedule: Q01DX001 (ip), vehicle: saline): 2 of 10, 5 of 10, 10 of 10
- survivor count (dose: 64.0 mg/kg/injection, schedule: Q01DX001 (ip), vehicle: water): 0 of 10 and 1 of 10
- survivor count (dose: 80.0 mg/kg/injection, schedule: Q01DX001 (ip), vehicle: saline): 0 of 10 and 10 of 10
- T/C (dose: 864.0 micrograms/kg/injection, schedule: Q01DX004 (ip), vehicle: other): 130 % of control [9 of 10 alive]
- T/C (dose: 1440.0 micrograms/kg/injection, schedule: Q01DX004 (ip), vehicle: other): 131 and 148 % of control
- T/C (dose: 2400.0 micrograms/kg/injection, schedule: Q01DX004 (ip), vehicle: other): 126 and 147 % of control
- survivor count (dose: 6670.0 micrograms/kg/injection, schedule: Q01DX004 (ip), vehicle: other): 10 of 10
